“And” between values parts separate entries of the source, which are not always exact repeats. Identical values can stand only once.
Tests used:
[1] = test system: MES-SA (Taxol sensitive) human uterine sarcoma; assay: Cytotoxicity / growth inhibition in drug-sensitive uterine sarcoma cells; assay type: cell-based; settings: Table 13; ratio of IC50 with CsA pretreat to No CsA in MES-SA
[2] = test system: MES-SA/Dx5 (Taxol resistant) human uterine sarcoma; assay: Cytotoxicity / growth inhibition in multidrug resistant uterine sarcoma cells; assay type: cell-based; settings: Table 13; ratio of IC50 resistant to MES-SA sensitive
Description: 1) Human Uterine Sarcoma Tumor Cell Line Pair: MES-SA (Taxol Sensitive) and MES-SA/Dx5 (Taxol Resistant).
HL-60 and HL-60/MX2 cells were both seeded at 5×10^4 cells/well in 90 μl complete media into 96 well plates on the day of compound addition. […] Ten μl volumes of the 10× serial dilutions were added to the test wells in triplicate and the plates returned to the incubator for 48 hours.
Resazurin dye in medium without cells was used to determine the background, which was subtracted from the data for all experimental wells.
The multidrug resistant MES-SA/Dx5 tumor cell line was derived from the human uterine sarcoma MES-SA tumor cell line and expresses elevated P-Glycoprotein (P-gp), an ATP dependent efflux pump. […] Paclitaxel, a known substrate of the P-gp pump was included as a control.

Compound | MES-SA Sensitive, CsA Pretreat, Ratio No CsA [1] | MES-SA/DX5 Resistant, No CsA, Ratio MES-SA [2]
CC(=O)O[C@H]1C(=O)[C@@]2(C)[C@H]([C@H](OC(=O)c3ccccc3)[C@]3(O)C[C@H](OC(=O)[C@H](O)[C@@H](NC(=O)c4ccccc4)c4ccccc4)C(C)=C1C3(C)C)[C@]1(OC(C)=O)CO[C@@H]1C[C@@H]2O [Taxol] | 0.6 and 0.4 | 
CC(C)(C)c1[nH]cnc1/C=C1\NC(=O)[C@H](Cc2ccccc2)NC1=O [t-butyl-phenylahistin] |  | 5.7 and 4.3

— patent publication US8247552B2, “Analogs of dehydrophenylahistins and their therapeutic use” (Nereus Pharmaceuticals, Inc., priority 2002, dated 2012)
